One molecule from patent publication US20030171545A1, “Novel Protein” (priority 1999, published 2003) can be followed below.

By UniProt entry, the sequences of proteins in these tests, tags left out. Where a name states a change or a piece, a line headed by the entry shows the natural chain unless it says otherwise.
UniProt Q15722: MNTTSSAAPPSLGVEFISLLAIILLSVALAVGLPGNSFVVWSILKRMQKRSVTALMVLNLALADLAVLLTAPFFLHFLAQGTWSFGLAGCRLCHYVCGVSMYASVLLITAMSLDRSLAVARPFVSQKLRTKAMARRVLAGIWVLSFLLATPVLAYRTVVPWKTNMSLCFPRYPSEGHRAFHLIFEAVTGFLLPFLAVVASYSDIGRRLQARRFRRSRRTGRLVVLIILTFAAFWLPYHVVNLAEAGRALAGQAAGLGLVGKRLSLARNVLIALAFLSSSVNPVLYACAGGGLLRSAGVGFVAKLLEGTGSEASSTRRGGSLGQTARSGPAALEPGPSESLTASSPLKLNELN

The target in assay [1] is leukotriene B4 receptor (BLTR) (human) (UniProt Q15722). The assay is described as follows: co-immunoprecipitation (legend of FIG. 6).
For assay [2] the target is unchanged. The assay is described as follows: co-immunoprecipitation from lysates of transiently transfected CHO cells, SDS-PAGE and immunoblot, without ligand stimulation.

These are yes or no findings as the source states them, for the method shown. In cells and extracts the contact can be indirect. Some results given as binding are weak or reduced against the parent protein; the word gives no strength.

B1: leukotriene-B4 receptor-like polypeptide (LTRGW1) (receptor)
chain: MAPSHRASQVGFCPTPERPLWRLPPTCRPRRMSVCYRPPGNETLLSWKTSRATGTAFLLLAALLGLPGNGFVVWSLAGWRPARGRPLAATLVLHLALADGAVLLLTPLFVAFLTRQAWPLGQAGCKAVYYVCALSMYASVLLTGLLSLQRCLAVTRPFLAPRLRSPALARRLLLAVWLAALLLAVPAAVYRHLWRDRVCQLCHPSPVHAAAHLSLETLTAFVLPFGLMLGCYSVTLARLRGARWGSGRHGARVGRLVSAIVLAFGLLWAPYHAVNLLQAVAALAPPEGALAKLGGAGQAARAGTTALAFFSSSVNPVLYVFTAGDLLPRAGPRFLTRLFEGSGEARGGGRSREGTMELRTTPQLKVVGQGRGNGDPGGGMEKDGPEWDL
Regarding B1, the binding entry in assay [1] and in assay [2] was “binds” in each case.
